Experimental data from publication PMC8027827.
These are yes or no findings as the source states them, for the method shown. Sequences can lack the tags named with a protein.

Biological target: OsMORF8 (two-hybrid fusion) (rice)
Assay: two-hybrid; Matchmaker GAL4 Two-hybrid System 2, GAL4 DNA binding domain and activation domain fusions cotransformed into yeast AH109; growth on SD/-Trp-Leu (DDO) and SD/-Trp-Leu-His-Ade (QDO) plates

B1: OsTRX f (two-hybrid fusion) (protein, UniProt Q8S091 1-187)
chain: MALRLSVSSSHGPASSPAISTCRPAACGRFPALLGGGVASQRRSLTVVSGPETRAVIPVRSSGSDTATVGAEAEAVAVTGQVTEVNKDTFWPIVKSAGPKVVVLDMYTQWCGPCKVMAPKFQEMSEKDQDVVFLKLDCNQDNKSLAKELGIKVVPTFKILKDGKVVKEVTGAKLDELIQAIETVKSS
binding: no binding

B2: OsTRX m1 (two-hybrid fusion) (protein, UniProt Q6H7E4 1-173)
chain: MASSALAVSVAKPAASPPVAVAAVTPQRRLLPQCRGVRAAPVVRLRSGRARGVSVVCAAQGQETSFQVPDVTKSTWQSLVVESELPVLVEFWASWCGPCKMIDPVIGKLSKEYEGKLNCYKLNTDENPDIATQFGIRSIPTMMIFKNGEKKDAVIGAVPESTLVSSIDKYIGR
binding: no binding

B3: OsTRX m2 (two-hybrid fusion) (protein, UniProt Q7X8R5 1-180)
chain: MASALAASTAVCSSPLASASASASSARRLRAVPPSRGIRYQALRADSGFAGNRRGGGRGASVVCAVQGQDTSIQVPEVTKSTWQSLVMESELPVLVGYWATWCGPCKMIDPVVGKLSKEYEGKLKCYKLNTDENPDIASQYGVRSIPTMMIFKNGEKKDAVIGAVPESTLIASIEKFVER
binding: no binding

B4: OsTRX m5 (two-hybrid fusion) (protein, UniProt Q9ZP20 1-172)
chain: MALETCFRAWATLHAPQPPSSGGSRDRLLLSGAGSSQSKPRLSVASPSPLRPASRFACQCSNVVDEVVVADEKNWDSMVLGSEAPVLVEFWAPWCGPCRMIAPVIDELAKEYVGKIKCCKVNTDDSPNIATNYGIRSIPTVLMFKNGEKKESVIGAVPKTTLATIIDKYVSS
binding: no binding

B5: OsTRX y (two-hybrid fusion) (protein, UniProt Q5JMR9 1-168)
chain: MAAFTSTTTAAAASPTPCRPAALVARSSAAPLRSAAPVVVAAGLRRAAAPSRRGATLRVQAKKQTFSSFDELLEKSEKPVLVDFYATWCGPCQYMVPILQEVSEKLGDKIQVVKIDTEKYTSIANRYQIEALPTFIIFKNGKPCHRFEGALPANQLIQQIESALEVAK
binding: no binding
